Assay results reported in patent publication US20060058346A1, “Novel enantiomers of etrahydroisoquinoline derivatives and theirpharmaceutically acceptable salts, their preparations and pharmaceutical compositions” (priority 2002, published 2006).
Some entries share one result that the patent states for a list of compounds. Some compounds share one range, which may span the group rather than tell each member.

Legend:
[1] = tested on: rat PRP; assay: Inhibition of platelet aggregation in rat PRP; format: cell-based; settings: for inhibitory effect on AA-induced platelet aggregation, times as strong as R-configuration: S versus R; for IC50 platelet aggregation, ADP: ADP 2 − 5 × 10^−6 M, rat PRP
Procedure: Male rat (weighing 200±20 g) was anaesthetized with ether. The blood (nine volumes) was collected from heart using a plastic syringe containing 2.2% sodium citrate (one volume). The collected blood was centrifuged at 200×g for 10 minutes to give supernatant platelet-rich plasma (PRP). The residue was centrifuged again at 700×g for 30 minutes, giving platelet-poor plasma (PPP) for experiment. We used a platelet analyzer to count the number of platelet of the PRP. PRP was diluted with physiological saline solution to prepare solution containing platelets in an amount of 400-450×10^6/ml. The inhibitory effects of the compound represented by formulas 3 to 8 was evaluated by platelet aggregation analyzer, and the inhibitory effect of each compound is given as % below. That is, after PRP was incubated for 3 minutes at 37° C., the compounds or a carrier was added thereto, and after 1 min, platelet aggregation-inducing agent such as ADP, collagen, arachidonic acid (AA), U46619 or epinephrine was added thereto, followed by investigation of turbidity caused by aggregation of platelets. % Inhibition=A−B/A×100 [arithmetic formula 1] • (A: Platelet aggregation rate in group treated with an aggregation-inducing agent; • B: Platelet aggregation rate in group treated with both an aggregation-inducing agent and the enantiomers simultaneously)

[2] = tested on: rat with DIC and MOF induced by endotoxin; assay: Endotoxin-induced DIC and multiple organ failure in rat; format: in vivo; settings: LPS 15 mg/kg i.v. 4 hours; S versus R
Procedure: Rats (Crj:CD(SD); 250±20 g) were used to test sample. Before the compound was administered, the rat was not fed. The compound was orally administered one time per day for two days in an amount of 10 mg˜25 mg/10 ml/kg/day. Distilled water (control group and LPS group) or enantiomer was administered to the rat repeatedly. After one hour, rat was anaesthetized with intramuscular injection of 50 mg/kg of pentobarbital. […] Thereafter, 50 mg/kg of pentobarbital was injected at 2 hour to the rat by intramuscular injection. Therefore, the rat was anaesthetized for all the experiment and operation.
The blood (2 ml for FDP and 6 ml for other variables) was collected from abdominal artery using a plastic syringe, into glass tube containing soy bean trypsin inhibitor and Bothrops atrox venom to measure FDP and into plastic tube containing 2.2% sodium citrate (1/10, volume/volume). The aggregated blood was centrifuged at 1200×g for 5 minutes two times. Before measurement of FDP, the supernatant was stored at freezer for at least 12 hours. Citrated blood was centrifuged at 2000×g for 30 minutes. The supernatant was used for measurement of fibrinogen and PT or APTT time. The aggregated blood collected in glass tube was disposed at the room temperature for 30 min, centrifuged to give the serum for measurement of AST and BUN.
Platelet from total citrated blood was counted by using automatic platelet counter (PLT-4, Texas International Lab.) PT or APTT time was measured by Beckton Dickenson BBL Fibrosystem (Coctkeysville, USA). FDP analysis was accomplished by using Thrombo-wellcotest kit. The said analysis was accomplished by up and down dilution method semi-quantitatively. Measurement of AST and BUN was accomplished by using Autobiochemical analyzer (Hitach 747, Japan).

## Oc1ccc(C[C@@H]2NCCc3cc(O)c(O)cc32)cc1 [Formula 3, (S)-6,7-Dihydroxy-1-(p-hydroxyphenylmethyl)-1,2,3,4-tetrahydroisoquinoline]
[1]
  inhibitory effect on AA-induced platelet aggregation, times as strong as R-configuration: 1.2˜2 times

## Oc1cc2c(cc1O)[C@H](Cc1cccc3ccccc13)NCC2 [Formula 5]
[1]
  inhibitory effect on AA-induced platelet aggregation, times as strong as R-configuration: 1.2˜2 times
  IC50 platelet aggregation, ADP: 2.4˜5.4×10^−4 M
[2]
  APTT time, shorter than with R-configuration: 18˜30%
  PT time, shorter than with R-configuration: 8-16%
  serum level of BUN, lower than with R-enantiomer: 10˜24%
  serum level of fibrinogen, as high as with R-configuration: 20˜120%

## Oc1cc2c(cc1O)[C@@H](Cc1cccc3ccccc13)NCC2 [Formula 6, (R)-6,7-Dihydroxy-1-(α-naphthylmethyl)-1,2,3,4-tetrahydroisoquinoline]
[1]
  IC50 platelet aggregation, ADP: 2.4˜5.4×10^−4 M

## Oc1cc2c(cc1O)[C@H](Cc1ccc3ccccc3c1)NCC2 [Formula 7, (S)-6,7-Dihydroxy-1-(β-naphthylmethyl)-1,2,3,4-tetrahydroisoquinoline]
[1]
  inhibitory effect on AA-induced platelet aggregation, times as strong as R-configuration: 1.2˜2 times
  IC50 platelet aggregation, ADP: 2.4˜5.4×10^−4 M
[2]
  APTT time, shorter than with R-configuration: 18˜30%
  PT time, shorter than with R-configuration: 8-16%
  serum level of BUN, lower than with R-enantiomer: 10˜24%
  serum level of fibrinogen, as high as with R-configuration: 20˜120%

## Oc1cc2c(cc1O)[C@@H](Cc1ccc3ccccc3c1)NCC2 [Formula 8, (R)-6,7-Dihydroxy-1-(β-naphthylmethyl)-1,2,3,4-tetrahydroisoquinoline]
[1]
  IC50 platelet aggregation, ADP: 2.4˜5.4×10^−4 M
